From PubChem BioAssay AID540276 (National Center for Advancing Translational Sciences (NCATS), 2011)
Several values for one entry are separate records, joined by “and”; a condition that tells them apart may be missing. Equal values may be shown once. About 5,400 (1.8%) of roughly 300,000 compounds were called active. Inconclusive means that the source gave no clear call. Such entries were picked first, then a sample of the others. Calls come from the whole dose curve; tested in HEK293 cells. Potencies beside an inconclusive call are fits to weak or partial responses and may not hold up.

Experiment: qHTS for inhibitors of binding or entry into cells for Marburg Virus
Conditions: Marburg virus pseudotyped entry inhibition, cell reporter; activity change, negative = inhibition: at 37.8 µM (top of the series) unless noted
% is set by controls: 0 for no effect and ±100 for the full control effect; potency is the fitted concentration of half-maximal effect.

Row | Structure (SMILES) | Potency | activity change, negative = inhibition
1 | CCCCCCN1C[C@H](O)[C@@H](n2cc(C3CC3)nn2)C[C@H]1c1ccc(OC)cc1 | inconclusive: 22.3 µM [inhibitor, partial curve, poor fit] | –
2 | Fc1ccc(NC(=S)Nc2cccnc2)cc1 | – | inactive: 8.25% [at 46.1 µM]
3 | N#Cc1c(N2CCCC2)nc(N)c2c(N)nc(N3CCCC3)cc12 | inconclusive: 35.5 µM [inhibitor, single point] | –
4 | O=S(=O)(c1ccccc1)c1nc(-c2ccccc2Cl)oc1N1CCCCCC1 | – | inactive: -24.6% [at 46.1 µM]
5 | CCOc1ccc(Nc2nc(Cl)nc(N3CCN(c4ccc(OC)cc4)CC3)n2)cc1 | inconclusive: 17.8 µM [inhibitor, partial curve, poor fit] | –
6 | Cc1ccc(NC(=O)c2ccco2)c(NC(=O)c2ccccc2)c1 | – | inactive: 11.6% [at 46.1 µM]
7 | COc1ccc(C)cc1C(=O)CCC(=O)Nc1ccccc1N1CCOCC1 | inactive | –
8 | CC1(C)Cc2c(C#N)c(N3CCN(C(=O)c4ccccc4)CC3)nc(Cc3ccccc3)c2CO1 | – | inactive: -26.5%
9 | COCCN(CCOC)c1cc(C)c(C#N)c2nc3ccccc3n12 | – | inactive: 3.89% [at 46.1 µM]
10 | Cc1ccc(C(=O)Nc2ccc(C(=O)O)cc2)cc1S(=O)(=O)NCc1ccccc1 | inconclusive: 20 µM [inhibitor, single point] | –
11 | CCCCn1c(CN2CCN(c3cccc(Cl)c3)CC2)nc2c1c(=O)n(C)c(=O)n2C | inconclusive: 25.9 µM [inhibitor, partial curve, poor fit] | –
12 | CC1(C)CC(=O)C(C=Nc2cc(C(=O)c3ccccc3)ccc2N)=C(O)C1 | – | inactive: -17.3% [at 46.1 µM]
13 | O=C(Nc1nnc(SCc2ccc(Cl)cc2)s1)c1cnccn1 | inconclusive: 6.31 µM [activator, single point] | –
14 | CC(C)Oc1ccc(C(=O)/C=C2/C(=O)Nc3ccccc32)cc1 | inconclusive: 35.5 µM [inhibitor, single point] | –
15 | NC(=O)c1cc(N=Nc2c(N)[nH]n(-c3c(Cl)cc(Cl)cc3Cl)c2=O)ccc1Cl | – | inactive: -21.3% [at 46.1 µM]
16 | C=CCN(CC=C)C(=O)Cn1cnc([N+](=O)[O-])n1 | inconclusive: 2.82 µM [activator, single point] | –
17 | Cc1ccc(C(C#N)c2ccc(Cl)nn2)cc1 (stereo not given) | – | inactive: 14.3% [at 46.1 µM]
18 | O=C(COc1ccc(Cc2ccccc2)cc1)c1ccc(F)cc1 | inconclusive: 3.16 µM [activator, full curve] | –
19 | CC1C(=O)N(Cc2cccc(F)c2)c2ccccc2N1C(=O)c1ccccc1 (stereo not given) | inconclusive: 25.1 µM [inhibitor, single point] | –
20 | COc1ccc(C(C(=O)NC2CCCC2)N(C(=O)c2ccco2)c2cc3c(cc2C(C)=O)OCO3)cc1 (stereo not given) | – | inactive: -4.56% [at 46.1 µM]
21 | CCOc1ccc(NC(=O)c2ccco2)cc1 | inconclusive: 32.6 µM [inhibitor, single point] | –
22 | CCC1CCCCN1C(=O)COC(=O)c1cc(=O)[nH]c2ccccc12 (stereo not given) | inconclusive: 3.55 µM [inhibitor, single point] | –
23 | COc1ccc(Cc2nnc3n2N=C(c2cc4ccccc4o2)CS3)cc1OC | inactive | –
24 | Cc1cccc(NC(=O)CNC(=O)c2cccc(-n3cccc3)c2)c1C | – | inactive: 7.11%

Looked up above:
Potency, CCCCn1c(CN2CCN(c3cccc(Cl)c3)CC2)nc2c1c(=O)n(C)c(=O)n2C is entered as inconclusive: 25.9 µM [inhibitor, partial curve, poor fit]
activity change, negative = inhibition, Cc1ccc(NC(=O)c2ccco2)c(NC(=O)c2ccccc2)c1 is entered as inactive: 11.6% [at 46.1 µM]
Potency, CCOc1ccc(NC(=O)c2ccco2)cc1 is entered as inconclusive: 32.6 µM [inhibitor, single point]
activity change, negative = inhibition, CC1(C)CC(=O)C(C=Nc2cc(C(=O)c3ccccc3)ccc2N)=C(O)C1 is entered as inactive: -17.3% [at 46.1 µM]
Potency, Cc1ccc(C(=O)Nc2ccc(C(=O)O)cc2)cc1S(=O)(=O)NCc1ccccc1 is entered as inconclusive: 20 µM [inhibitor, single point]

(list continues)

Row | Structure (SMILES) | Potency | activity change, negative = inhibition
25 | CCN(CC)S(=O)(=O)c1cccc(NC(=O)COc2ccc(F)cc2Br)c1 | inconclusive: 11.2 µM [inhibitor, partial curve, poor fit] | –
26 | O=C(Nc1ccc(N2CCOCC2)cc1)c1ccc(Cl)nc1 | – | inactive: 2.29%
27 | O=C(CCCn1c(SCc2cccc(F)c2)nc2ccccc2c1=O)NCC1CCCO1 (stereo not given) | inconclusive: 35.5 µM [inhibitor, partial curve, poor fit] | –
28 | COc1ccc(Cl)cc1N1C(=O)CC(Sc2ccccc2N)C1=O (stereo not given) | inconclusive: 15.8 µM [inhibitor, partial curve, poor fit] | –
29 | Clc1ccc(C[n+]2csc3ccccc32)cc1 | – | inactive: 12.6%
30 | COc1cc([N+](=O)[O-])ccc1NC(=S)NNC(=O)CCC(=O)Nc1ccccc1Cl | – | inactive: -16.4% [at 46.1 µM]
31 | O=C(C1CCCC1)N1CCC(CO)(Cc2ccccc2Cl)CC1 | inconclusive: 4.47 µM [inhibitor, full curve, poor fit] | –
32 | COc1ccc(OC)c(NC(=O)CSc2nc3scc(C)c3c(=O)[nH]2)c1 | inconclusive: 31.6 µM [inhibitor, single point] | –
33 | O=C(Nc1cnc2ccccc2c1)N1CCOCC1 | inconclusive: 11.2 µM [activator, partial curve] | –
34 | CCOc1ccc(CCNC(=O)c2cc3c(s2)CS(=O)(=O)C3)cc1OCC | – | inactive: -14.9% [at 46.1 µM]
35 | Cc1nc2ccc(NC(=O)c3ccc(Cl)c([N+](=O)[O-])c3)cc2s1 | – | inactive: -5.11%
36 | CCCC(=O)Nc1ccc2nn(-c3ccc(OC)cc3)nc2c1 | inconclusive: 35.5 µM [activator, single point] | –
37 | CCN(CC(=O)NC1CCS(=O)(=O)C1)S(=O)(=O)c1c(C)c(C)cc(C)c1C (stereo not given) | – | inactive: 1.64%
38 | O=C(CSc1ccccc1Cl)N1CCC(c2nc3ccccc3s2)CC1 | – | inactive: -15%
39 | C[C@H](NCCc1ccc(O)cc1)[C@@H](O)c1ccc(O)cc1 | inactive | –
40 | COc1cc2c(cc1OC)/C(=C/C(=O)c1ccc(C)cc1)NCC2 | inconclusive: 15.8 µM [inhibitor, partial curve, poor fit] | –
41 | NC(=Nc1ccccc1)NC(=O)c1nc(Cl)c(N)nc1N | inconclusive: 224 nM [inhibitor, full curve, poor fit] and inconclusive: 4.11 µM [activator, single point] | –
42 | COc1ccc(/C=N/n2cc(-c3ccc(OC)cc3)nc2N)cc1 | inconclusive: 20.6 µM [inhibitor, partial curve, poor fit] | –
43 | CCN(CC(=O)Nc1ccc2c(c1)OCCO2)C(=O)/C=C/c1cccc(OC)c1OC | inconclusive: 7.94 µM [activator, partial curve, poor fit] | –
44 | COc1ccc(NC(=O)c2cc3cc(C)ccc3n2C)c(OC)c1 | inconclusive: 3.98 µM [inhibitor, partial curve, poor fit] | –
45 | O=C(Nc1ccc(Oc2c(F)c(F)c(F)c(F)c2F)cc1)OC1CCN2Cc3ccccc3N=C12 (stereo not given) | inconclusive: 7.08 µM [inhibitor, partial curve, poor fit] | –
46 | O=C(NNC(=O)NC1CCCCC1)NC1CCCCC1 | inconclusive: 2.06 µM [inhibitor, partial curve, poor fit] | –
47 | CN(C)S(=O)(=O)c1ccc(C(=O)NCCC(=O)N2CCCC2)cc1 | inconclusive: 14.1 µM [inhibitor, single point] | –
48 | Cc1c(CCC(=O)N[C@@H](CCCNC(N)=O)C(=O)O)c(=O)oc2cc3oc4c(c3cc12)CCCC4 | inconclusive: 5.62 µM [inhibitor, partial curve, poor fit] | –

Row | Structure (SMILES) | Potency | activity change, negative = inhibition
49 | Cc1ccc(NC(=O)CN2CCc3cc4c(cc3C2C)OCCCO4)cc1 (stereo not given) | inconclusive: 39.8 µM [inhibitor, partial curve, poor fit] | –
50 | Clc1ccc(-c2cnc3ccccc3n2)cc1 | inconclusive: 0.355 µM [activator, full curve] | –
51 | COC(=O)c1ccccc1NC(=O)Cn1cnc2sc(C)c(S(=O)(=O)N3CCC(C)CC3)c2c1=O | – | inactive: -7.82% [at 46.1 µM]
52 | Cc1ccc(NC(=S)N2CC(C)OC(C)C2)cc1C (stereo not given) | inconclusive: 7.94 µM [activator, partial curve, poor fit] | –
53 | CCOc1ccc(/C=N/NC(=O)c2c(C)n(C)c3ccc(OC)cc23)cc1 | – | inactive: -20.3%
54 | O=C(O)c1cccc(N(CCO)CCO)c1 | – | inactive: 15.6% [at 46.1 µM]
55 | O=C(Nc1ccc(Cl)cn1)c1ccccc1[N+](=O)[O-] | – | inactive: -29.9% [at 46.1 µM]
56 | Cc1cc(O)c(C(C)C)cc1NS(=O)(=O)c1ccccc1 | – | inactive: 6.85%
57 | N/C(=N\NS(=O)(=O)c1ccc(Cl)cc1)c1ccccn1 | inconclusive: 1.58 µM [inhibitor, full curve, poor fit] | –
58 | Cc1cc(-c2c(C)[nH]n(-c3ccccc3)c2=O)n[nH]1 | inconclusive: 8.91 µM [activator, partial curve, poor fit] | –
59 | CSc1ccc(CNC(C)C(O)c2ccccc2)cc1 (stereo not given) | inconclusive: 8.91 µM [inhibitor, partial curve, poor fit] | –
60 | CCC(Cn1nnc2ccccc2c1=O)NC(=O)Nc1ccccc1OC (stereo not given) | inconclusive: 12.6 µM [activator, partial curve, poor fit] | –
61 | COc1ccc(-c2cc(-c3ccc(C)cc3)nc3c2COc2ccccc2-3)cc1 | – | inactive: 4.27% [at 46.1 µM]
62 | O=C(CN1C(=O)/C(=C\c2ccc(F)cc2)Oc2ccccc21)NCc1ccco1 | inconclusive: 35.5 µM [activator, single point] | –
63 | CC(C)(C(=O)c1ccccc1)/[N+]([O-])=C/c1ccc(F)cc1 | – | inactive: -5.72%
64 | COc1cccc(Nc2nc3ccccc3n3nnnc23)c1 | inconclusive: 32.6 µM [inhibitor, single point] | –
65 | CCOc1ccc(CCNC(=O)c2cc3c(-c4ccccc4F)nn(C)c3s2)cc1 | inconclusive: 25.1 µM [inhibitor, single point] | –
66 | CCc1ccc(-n2c(O)c(/C=N/N3CCCCC3c3cccnc3)c(=O)[nH]c2=O)cc1 (stereo not given) | inconclusive: 0.082 µM [inhibitor, full curve, poor fit] | –
67 | CCc1ccc(N(CC(=O)NCC2CCCO2)C(=O)CCC(=O)Nc2nccs2)cc1 (stereo not given) | inconclusive: 5.01 µM [activator, partial curve] | –
68 | OC(CNc1nc(C(F)(F)F)nc2ccccc12)c1ccccc1 (stereo not given) | inconclusive: 35.5 µM [inhibitor, single point] | –
69 | Cc1ccc(S(=O)(=O)CC(=O)Nc2nc3ccccc3s2)cc1 | inconclusive: 7.08 µM [inhibitor, partial curve, poor fit] | –
70 | CSc1nc(NCCOCCO)c2sc3nc(-c4ccco4)c4c(c3c2n1)CCC4 | inconclusive: 35.5 µM [inhibitor, single point] | –
